Source: the supplement of paper PMC10849652
Some of the results follow.

By UniProt entry, the sequences of proteins in these tests, tags left out. Where a name states a change or a piece, a line headed by the entry shows the natural chain unless it says otherwise.
UniProt Q9NV96: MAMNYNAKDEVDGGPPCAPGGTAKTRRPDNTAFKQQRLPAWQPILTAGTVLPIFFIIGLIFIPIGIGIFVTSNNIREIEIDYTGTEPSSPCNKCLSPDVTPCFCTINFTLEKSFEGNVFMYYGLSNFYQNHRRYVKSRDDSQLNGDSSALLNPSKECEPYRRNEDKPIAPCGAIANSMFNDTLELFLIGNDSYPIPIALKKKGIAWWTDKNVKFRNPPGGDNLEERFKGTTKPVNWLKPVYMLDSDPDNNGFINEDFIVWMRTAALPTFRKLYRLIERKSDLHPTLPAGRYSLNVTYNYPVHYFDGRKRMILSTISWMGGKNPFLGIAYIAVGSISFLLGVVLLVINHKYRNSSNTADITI
UniProt Q9BUB7: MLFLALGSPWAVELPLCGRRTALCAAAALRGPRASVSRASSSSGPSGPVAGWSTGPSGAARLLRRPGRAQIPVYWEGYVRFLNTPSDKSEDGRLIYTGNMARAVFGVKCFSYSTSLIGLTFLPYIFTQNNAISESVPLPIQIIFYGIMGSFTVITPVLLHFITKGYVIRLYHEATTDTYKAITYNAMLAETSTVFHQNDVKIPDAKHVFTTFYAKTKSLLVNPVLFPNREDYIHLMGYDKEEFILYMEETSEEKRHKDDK
UniProt Q9NVH6: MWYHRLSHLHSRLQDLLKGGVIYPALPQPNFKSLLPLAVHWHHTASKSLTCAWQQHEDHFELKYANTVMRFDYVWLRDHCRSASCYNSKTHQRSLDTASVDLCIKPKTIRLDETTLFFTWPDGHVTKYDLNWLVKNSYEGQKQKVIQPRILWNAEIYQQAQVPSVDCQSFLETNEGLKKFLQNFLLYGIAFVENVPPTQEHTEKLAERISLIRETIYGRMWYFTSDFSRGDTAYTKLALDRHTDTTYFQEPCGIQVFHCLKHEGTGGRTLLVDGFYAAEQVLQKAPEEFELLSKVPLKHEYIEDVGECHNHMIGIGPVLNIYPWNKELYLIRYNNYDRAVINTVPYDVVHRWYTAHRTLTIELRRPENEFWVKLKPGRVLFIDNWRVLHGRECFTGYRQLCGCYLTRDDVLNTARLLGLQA
UniProt Q9P0S9: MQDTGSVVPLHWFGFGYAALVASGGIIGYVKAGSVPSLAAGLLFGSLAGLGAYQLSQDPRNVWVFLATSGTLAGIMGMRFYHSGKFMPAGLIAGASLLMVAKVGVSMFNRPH
UniProt P63313: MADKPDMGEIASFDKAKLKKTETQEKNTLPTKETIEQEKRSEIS
UniProt Q71RG4: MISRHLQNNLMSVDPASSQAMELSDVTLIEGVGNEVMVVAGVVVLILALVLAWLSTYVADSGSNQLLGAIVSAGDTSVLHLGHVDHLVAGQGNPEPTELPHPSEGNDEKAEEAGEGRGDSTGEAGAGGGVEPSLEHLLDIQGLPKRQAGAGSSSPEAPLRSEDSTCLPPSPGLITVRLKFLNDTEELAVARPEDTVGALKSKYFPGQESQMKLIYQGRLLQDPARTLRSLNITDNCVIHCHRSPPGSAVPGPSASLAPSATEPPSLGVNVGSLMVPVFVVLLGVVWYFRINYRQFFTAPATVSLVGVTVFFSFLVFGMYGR
UniProt Q9H3N1: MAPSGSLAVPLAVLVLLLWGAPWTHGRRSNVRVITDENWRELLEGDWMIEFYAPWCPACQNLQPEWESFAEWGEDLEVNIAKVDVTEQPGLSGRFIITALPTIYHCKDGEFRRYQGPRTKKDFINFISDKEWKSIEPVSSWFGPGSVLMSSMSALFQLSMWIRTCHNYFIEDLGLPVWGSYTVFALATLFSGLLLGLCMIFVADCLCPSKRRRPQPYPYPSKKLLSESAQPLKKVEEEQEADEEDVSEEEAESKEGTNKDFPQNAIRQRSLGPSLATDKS
UniProt Q9P0T7: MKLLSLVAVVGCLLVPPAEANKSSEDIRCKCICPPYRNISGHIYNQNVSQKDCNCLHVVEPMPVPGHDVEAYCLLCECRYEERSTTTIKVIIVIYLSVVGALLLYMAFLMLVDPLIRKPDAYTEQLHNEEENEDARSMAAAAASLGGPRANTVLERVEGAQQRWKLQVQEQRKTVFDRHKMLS
UniProt Q6UW68: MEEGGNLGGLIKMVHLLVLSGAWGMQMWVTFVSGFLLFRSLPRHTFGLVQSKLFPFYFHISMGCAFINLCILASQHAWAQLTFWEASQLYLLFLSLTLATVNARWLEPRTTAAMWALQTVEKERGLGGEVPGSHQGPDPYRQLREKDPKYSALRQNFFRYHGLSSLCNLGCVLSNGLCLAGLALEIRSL
UniProt Q0P6H9: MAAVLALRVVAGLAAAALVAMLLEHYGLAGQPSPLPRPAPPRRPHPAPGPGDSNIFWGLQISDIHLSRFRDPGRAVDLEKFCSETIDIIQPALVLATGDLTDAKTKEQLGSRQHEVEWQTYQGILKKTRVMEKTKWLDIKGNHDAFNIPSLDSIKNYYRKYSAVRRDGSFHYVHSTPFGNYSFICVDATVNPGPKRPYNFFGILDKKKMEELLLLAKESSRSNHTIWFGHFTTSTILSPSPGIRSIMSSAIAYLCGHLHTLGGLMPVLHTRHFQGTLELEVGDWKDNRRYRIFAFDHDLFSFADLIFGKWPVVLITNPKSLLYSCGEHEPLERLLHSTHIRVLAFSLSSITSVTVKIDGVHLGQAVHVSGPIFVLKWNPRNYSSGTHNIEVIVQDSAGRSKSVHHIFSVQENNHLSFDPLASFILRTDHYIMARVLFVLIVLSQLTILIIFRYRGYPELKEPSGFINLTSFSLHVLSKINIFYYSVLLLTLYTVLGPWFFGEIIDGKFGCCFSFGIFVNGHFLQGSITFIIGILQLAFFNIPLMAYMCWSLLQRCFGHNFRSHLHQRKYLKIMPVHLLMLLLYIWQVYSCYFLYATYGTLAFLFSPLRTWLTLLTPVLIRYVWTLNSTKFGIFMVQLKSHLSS
UniProt Q9H6X4: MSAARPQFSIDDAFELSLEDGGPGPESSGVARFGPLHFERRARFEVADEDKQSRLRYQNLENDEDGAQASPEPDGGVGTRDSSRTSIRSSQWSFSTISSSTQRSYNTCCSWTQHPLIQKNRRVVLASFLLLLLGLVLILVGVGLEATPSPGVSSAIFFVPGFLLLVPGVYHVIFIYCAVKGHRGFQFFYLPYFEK
UniProt Q5BJD5: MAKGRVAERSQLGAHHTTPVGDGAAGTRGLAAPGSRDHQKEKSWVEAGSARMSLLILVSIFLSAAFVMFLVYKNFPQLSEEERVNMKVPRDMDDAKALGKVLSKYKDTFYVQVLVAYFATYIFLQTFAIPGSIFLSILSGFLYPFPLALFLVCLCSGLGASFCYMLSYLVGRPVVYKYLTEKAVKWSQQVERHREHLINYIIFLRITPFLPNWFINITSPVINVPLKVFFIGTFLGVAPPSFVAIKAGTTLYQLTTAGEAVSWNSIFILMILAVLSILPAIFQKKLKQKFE
UniProt Q9Y2S6, whole entry, looked up: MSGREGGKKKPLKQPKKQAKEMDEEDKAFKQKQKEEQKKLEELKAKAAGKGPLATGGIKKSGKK
UniProt Q8TBQ9: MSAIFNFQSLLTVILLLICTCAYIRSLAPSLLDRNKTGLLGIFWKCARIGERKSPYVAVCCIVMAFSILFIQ
UniProt Q9H061: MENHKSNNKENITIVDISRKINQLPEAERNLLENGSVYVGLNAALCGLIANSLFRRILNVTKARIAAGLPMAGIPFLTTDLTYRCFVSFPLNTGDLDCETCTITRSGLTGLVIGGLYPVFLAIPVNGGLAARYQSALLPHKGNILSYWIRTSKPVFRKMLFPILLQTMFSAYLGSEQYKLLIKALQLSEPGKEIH
UniProt Q9BRN9: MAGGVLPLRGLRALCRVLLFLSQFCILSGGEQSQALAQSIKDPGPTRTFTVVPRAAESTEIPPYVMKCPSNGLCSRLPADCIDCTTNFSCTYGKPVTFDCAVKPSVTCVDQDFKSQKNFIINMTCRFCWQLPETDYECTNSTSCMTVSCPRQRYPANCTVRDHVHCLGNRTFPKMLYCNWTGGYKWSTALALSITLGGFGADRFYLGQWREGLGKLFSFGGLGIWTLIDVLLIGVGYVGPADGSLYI
UniProt Q6PL24: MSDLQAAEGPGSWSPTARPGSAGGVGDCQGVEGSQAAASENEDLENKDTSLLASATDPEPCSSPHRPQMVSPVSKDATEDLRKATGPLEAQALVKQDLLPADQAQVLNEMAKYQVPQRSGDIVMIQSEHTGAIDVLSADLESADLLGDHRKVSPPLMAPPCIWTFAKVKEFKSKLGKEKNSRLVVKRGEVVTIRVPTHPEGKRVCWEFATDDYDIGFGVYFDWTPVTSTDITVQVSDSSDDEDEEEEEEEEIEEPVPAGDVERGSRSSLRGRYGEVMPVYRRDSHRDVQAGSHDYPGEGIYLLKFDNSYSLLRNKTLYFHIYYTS
UniProt Q9NVV0: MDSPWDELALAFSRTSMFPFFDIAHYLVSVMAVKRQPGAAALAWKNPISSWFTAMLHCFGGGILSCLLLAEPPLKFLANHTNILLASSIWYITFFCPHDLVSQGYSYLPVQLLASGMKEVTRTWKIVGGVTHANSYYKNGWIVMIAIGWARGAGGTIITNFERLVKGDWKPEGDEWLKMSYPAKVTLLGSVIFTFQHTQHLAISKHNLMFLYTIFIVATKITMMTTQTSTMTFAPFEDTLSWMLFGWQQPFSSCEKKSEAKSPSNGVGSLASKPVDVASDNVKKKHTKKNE
UniProt Q5BJH2: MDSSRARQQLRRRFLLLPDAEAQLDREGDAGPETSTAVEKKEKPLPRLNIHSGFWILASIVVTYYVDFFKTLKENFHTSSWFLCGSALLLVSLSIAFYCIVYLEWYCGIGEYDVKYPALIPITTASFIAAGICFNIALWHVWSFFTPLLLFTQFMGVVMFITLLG
UniProt Q9UKI8: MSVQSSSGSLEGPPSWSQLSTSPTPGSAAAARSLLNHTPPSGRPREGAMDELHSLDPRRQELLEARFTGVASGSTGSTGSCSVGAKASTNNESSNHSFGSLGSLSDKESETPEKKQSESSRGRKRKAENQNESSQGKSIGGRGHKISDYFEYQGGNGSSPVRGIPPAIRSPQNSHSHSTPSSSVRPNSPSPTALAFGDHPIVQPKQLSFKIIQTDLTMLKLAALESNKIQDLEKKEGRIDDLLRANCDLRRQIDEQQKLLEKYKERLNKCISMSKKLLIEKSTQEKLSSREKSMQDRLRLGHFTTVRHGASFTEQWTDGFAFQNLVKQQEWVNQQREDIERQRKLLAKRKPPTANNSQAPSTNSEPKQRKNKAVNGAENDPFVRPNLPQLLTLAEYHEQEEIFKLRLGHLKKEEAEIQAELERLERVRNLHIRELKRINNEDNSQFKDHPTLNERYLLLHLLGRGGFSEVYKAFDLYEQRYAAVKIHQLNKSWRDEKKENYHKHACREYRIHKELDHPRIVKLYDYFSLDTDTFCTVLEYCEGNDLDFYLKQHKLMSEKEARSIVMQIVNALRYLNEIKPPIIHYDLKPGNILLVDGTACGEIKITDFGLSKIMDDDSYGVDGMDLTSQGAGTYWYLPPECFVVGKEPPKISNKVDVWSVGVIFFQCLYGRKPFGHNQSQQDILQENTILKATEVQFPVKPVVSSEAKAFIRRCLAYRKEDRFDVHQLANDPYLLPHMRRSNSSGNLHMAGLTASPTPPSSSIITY
UniProt Q9HC07: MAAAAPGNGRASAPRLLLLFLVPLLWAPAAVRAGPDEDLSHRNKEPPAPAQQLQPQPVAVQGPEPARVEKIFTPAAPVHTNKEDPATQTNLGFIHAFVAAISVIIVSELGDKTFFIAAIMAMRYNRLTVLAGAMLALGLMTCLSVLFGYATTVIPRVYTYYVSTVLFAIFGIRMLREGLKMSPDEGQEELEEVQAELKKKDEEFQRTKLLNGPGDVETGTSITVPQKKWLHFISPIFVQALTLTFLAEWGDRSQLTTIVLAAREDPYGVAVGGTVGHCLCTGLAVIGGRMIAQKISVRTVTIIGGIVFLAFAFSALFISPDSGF
UniProt Q8NDZ6: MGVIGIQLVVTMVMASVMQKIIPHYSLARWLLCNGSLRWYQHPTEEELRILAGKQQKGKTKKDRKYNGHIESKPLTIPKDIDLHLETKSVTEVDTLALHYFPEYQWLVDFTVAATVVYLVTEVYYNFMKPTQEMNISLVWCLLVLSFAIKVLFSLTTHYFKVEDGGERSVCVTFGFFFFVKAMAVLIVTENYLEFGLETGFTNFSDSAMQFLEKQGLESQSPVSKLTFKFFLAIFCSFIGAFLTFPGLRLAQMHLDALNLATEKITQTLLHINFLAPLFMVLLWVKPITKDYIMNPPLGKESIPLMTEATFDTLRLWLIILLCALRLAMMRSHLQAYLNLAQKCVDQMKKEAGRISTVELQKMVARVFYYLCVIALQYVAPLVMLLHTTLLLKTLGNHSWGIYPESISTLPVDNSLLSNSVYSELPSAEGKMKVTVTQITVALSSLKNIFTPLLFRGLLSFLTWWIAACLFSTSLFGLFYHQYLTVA
UniProt P28289: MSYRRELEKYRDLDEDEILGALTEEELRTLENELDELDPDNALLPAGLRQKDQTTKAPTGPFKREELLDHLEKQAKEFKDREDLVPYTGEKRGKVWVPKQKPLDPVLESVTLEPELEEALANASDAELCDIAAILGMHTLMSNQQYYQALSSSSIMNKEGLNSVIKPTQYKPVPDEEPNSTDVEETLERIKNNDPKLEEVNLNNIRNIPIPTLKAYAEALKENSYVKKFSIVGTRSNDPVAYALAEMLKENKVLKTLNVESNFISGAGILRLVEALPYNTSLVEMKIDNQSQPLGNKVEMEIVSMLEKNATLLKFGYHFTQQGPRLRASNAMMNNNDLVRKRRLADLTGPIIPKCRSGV

Tests used:
Assay in all cases: log2 fold change, soluble protein after heating vs DMSO (PISA); higher = thermal stabilisation; K562 cells, 10 uM, 30 min; active = over 0.2 and 3.5 SD of the protein, either way, in both replicates (recomputed)
[1] = compound: C1=CC=C(C=C1)[C@H](COC2=CC3=C(C=C2)NC(=O)N3)NC(=O)C4=CC=CN(C4=O)CC5=CC(=C(C=C5)F)F
Outline: (§1)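 Soluble protein was quantified by TMTpro 16plex LC-MS/MS after channel sums were equalised. It was obtained as the supernatant after 21,000xg for 90 min from pooled aliquots of K562 cells (2×10^6 cells/mL, 10 μM compound, 30 min) heated for 3 min across 48°C-58°C and extracted in PBS with 0.5% NP-40 at 4°C. Thermal stability values are relative to control samples and come from duplicates. They are given as log2 fold changes.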

[2] = compound: CC1=C(SC2=C1C(=N[C@H](C3=NN=C(N32)C)CC(=O)N)C4=CC=C(C=C4)Cl)C
Outline: as §1

[3] = compound: CC1=C2C(=CC=C1)N=C(N(C2=O)C3=CC=CC=C3C)CN4C=NC5=C(N=CN=C54)N
Outline: as §1

[4] = compound: Cc1sc2c(c1C)C(c1ccc(Cl)cc1)=N[C@@H](CC(=O)OC(C)(C)C)c1nnc(C)n1-2
Outline: as §1

[5] = compound: c1ccc([C@@H]2C[C@H]2NC2CCNCC2)cc1
Outline: as §1

Measured: log2 fold change

TMEM63A (UniProt O94886)
inactive: [1] -0.052 | [2] 0.049 | [3] 0.036 | [4] -0.03 | [5] -0.073

TMEM30A (UniProt Q9NV96)
inactive: [1] -0.003 | [2] 0.041 | [3] -0.021 | [4] 0.014 | [5] 0.041

TMEM199 (UniProt Q8N511)
inactive: [1] 0.062 | [2] 0.013 | [3] 0.144 | [4] -0.074 | [5] 0.006

TMEM70 (UniProt Q9BUB7)
inactive: [1] -0.002 | [2] 0.065 | [3] 0.057 | [4] -0.05 | [5] -0.002

TLR9 isoform 4 (UniProt Q9NR96)
inactive: [1] -0.104 | [2] 0.052 | [3] 0.02 | [4] 0.114 | [5] -0.143

TMLHE isoform 8 (UniProt Q9NVH6)
inactive: [1] -0.071 | [2] -0.002 | [3] 0.052 | [4] -0.02 | [5] 0.067

TMBIM1 (UniProt Q969X1)
inactive: [1] 0.024 | [2] 0.206 | [3] 0.242 | [4] -0.005 | [5] 0.193

TMEM14C (UniProt Q9P0S9)
inactive: [1] 0.098 | [2] -0.028 | [3] 0.097 | [4] -0.064 | [5] 0.096

TMSB10 (UniProt P63313)
inactive: [1] 0.036 | [2] 0.002 | [3] 0.068 | [4] -0.035 | [5] -0.047

TMEM230 isoform 2 (UniProt Q96A57)
inactive: [1] 0.008 | [2] -0.023 | [3] -0.129 | [4] 0.019 | [5] 0.012

TMUB2 (UniProt Q71RG4)
inactive: [1] 0.042 | [2] -0.016 | [3] 0.027 | [4] 0.09 | [5] 0.028

TMX1 (UniProt Q9H3N1)
inactive: [1] 0.039 | [2] 0.003 | [3] 0.034 | [4] -0.024 | [5] -0.028

TMCC3 (UniProt Q9ULS5)
inactive: [1] -0.143

TMEM9B (UniProt Q9NQ34)
inactive: [1] 0.043 | [2] 0.074 | [3] 0.093 | [4] -0.041 | [5] -0.011

TMEM9 (UniProt Q9P0T7)
inactive: [1] 0.008 | [2] 0.02 | [3] -0.002 | [4] -0.027 | [5] -0.079

TMEM205 (UniProt Q6UW68)
inactive: [1] -0.019 | [2] 0.197 | [3] -0.154 | [4] 0.072 | [5] -0.039

TMEM62 (UniProt Q0P6H9)
inactive: [1] 0.116 | [2] 0.092 | [3] 0.057 | [4] 0.016 | [5] 0.092

TLK2 isoform 2 (UniProt Q86UE8)
inactive: [1] 0.006 | [2] 0.021 | [3] 0.041 | [4] -0.007 | [5] 0.051

TMEM135 (UniProt Q86UB9)
inactive: [1] 0.022 | [2] 0.02 | [3] 0.182 | [4] -0.014 | [5] -0.009

TMEM87A (UniProt Q8NBN3)
inactive: [1] 0.034 | [2] 0.034 | [3] 0.042 | [4] 0.012 | [5] 0.049

TMEM242 (UniProt Q9NWH2)
inactive: [1] 0.088 | [2] 0.06 | [3] 0.02 | [4] -0.058 | [5] 0.13

TMEM134 (UniProt Q9H6X4)
inactive: [1] 0.037

Four entries drawn at random from the list so far, as already listed:
TMEM134 (UniProt Q9H6X4)
inactive: [1] 0.037

TMEM87A (UniProt Q8NBN3)
inactive: [1] 0.034 | [2] 0.034 | [3] 0.042 | [4] 0.012 | [5] 0.049

TMEM242 (UniProt Q9NWH2)
inactive: [1] 0.088 | [2] 0.06 | [3] 0.02 | [4] -0.058 | [5] 0.13

TMEM62 (UniProt Q0P6H9)
inactive: [1] 0.116 | [2] 0.092 | [3] 0.057 | [4] 0.016 | [5] 0.092

Going on with the list:

TMEM147 (UniProt Q9BVK8)
inactive: [1] -0.1 | [2] -0.031 | [3] -0.011 | [4] 0.087 | [5] 0.242

TMEM245 (UniProt Q9H330)
inactive: [1] 0.017 | [2] -0.038 | [3] -0.011 | [4] -0.011 | [5] 0.061

TMTC4 isoform 3 (UniProt Q5T4D3)
inactive: [1] 0.082

TLN1 (UniProt Q9Y490)
inactive: [1] -0.052 | [2] 0.052 | [3] 0.051 | [4] -0.015 | [5] -0.018

TMEM41B (UniProt Q5BJD5)
inactive: [1] -0.005 | [2] 0.022 | [3] 0.034 | [4] -0.16 | [5] 0.046

TMA7 (UniProt Q9Y2S6)
inactive: [1] -0.053 | [2] -0.008 | [3] 0.028 | [4] -0.017 | [5] 0.006

TMED1 (UniProt Q13445)
inactive: [1] -0.037 | [2] 0.05 | [3] 0.011 | [4] 0.066 | [5] -0.025

TMEM68 (UniProt Q96MH6)
inactive: [1] 0.031 | [2] 0.055 | [3] 0.123 | [4] 0.003 | [5] -0.056

TMEM65 (UniProt Q6PI78)
inactive: [1] -0.022 | [2] 0.133 | [3] 0.077 | [4] -0.144 | [5] -0.023

TMEM43 (UniProt Q9BTV4)
inactive: [1] 0.075 | [2] -0.039 | [3] -0.042 | [4] 0 | [5] -0.008

TMEM8A (UniProt Q9HCN3)
inactive: [1] 0.017 | [2] 0.038 | [3] -0.011 | [4] 0.038 | [5] 0.094

TMEM167A (UniProt Q8TBQ9)
inactive: [1] -0.031 | [2] -0.023 | [3] -0.018 | [4] -0.025 | [5] 0.084

TLE4 isoform 3 (UniProt Q04727)
inactive: [1] -0.011 | [2] 0.047 | [3] 0.052 | [4] -0.051 | [5] 0.003

TMEM126A (UniProt Q9H061)
inactive: [1] 0.056 | [2] 0.032 | [3] 0.06 | [4] -0.015 | [5] -0.03

TM2D3 (UniProt Q9BRN9)
inactive: [1] -0.037 | [2] 0.066 | [3] -0.017 | [4] 0.013 | [5] 0.014

TM9SF4 (UniProt Q92544)
inactive: [1] -0.038 | [2] 0.008 | [3] -0.001 | [4] -0.047 | [5] -0.032

TMA16 (UniProt Q96EY4)
inactive: [1] 0.063 | [2] -0.302 | [3] -0.22 | [4] 0.165 | [5] 0.008

TMEM141 (UniProt Q96I45)
inactive: [1] 0.002 | [2] 0.01 | [3] 0.037 | [4] -0.094 | [5] 0.079

TMED8 (UniProt Q6PL24)
inactive: [1] -0.005 | [2] -0.02 | [3] 0.081 | [4] -0.017 | [5] -0.008

TMEM126B (UniProt Q8IUX1)
inactive: [1] -0.016 | [2] 0.015 | [3] 0.052 | [4] 0.006 | [5] -0.009

TMEM38B (UniProt Q9NVV0)
inactive: [1] 0.017 | [2] 0.052 | [3] -0.001 | [4] 0.015 | [5] 0.015

TMEM164 (UniProt Q5U3C3)
inactive: [1] -0.195 | [2] -0.047 | [3] 0.257 | [4] -0.22 | [5] 0.068

TMEM128 (UniProt Q5BJH2)
inactive: [1] -0.038 | [2] -0.001 | [3] 0.185 | [4] -0.1 | [5] 0

TMEM115 (UniProt Q12893)
inactive: [1] 0.014 | [2] 0.026 | [3] -0.038 | [4] 0.022 | [5] 0.009

TMEM63B (UniProt Q5T3F8)
inactive: [1] 0.059 | [2] -0.005 | [3] -0.099 | [4] -0.036 | [5] -0.04

TM9SF1 (UniProt O15321)
inactive: [1] 0.169 | [2] 0.045 | [3] 0.103 | [4] -0.081 | [5] -0.05

TMPO (UniProt P42167)
inactive: [1] 0.003 | [2] 0.032 | [3] 0.003 | [4] -0.049 | [5] -0.015

TLK1 (UniProt Q9UKI8)
inactive: [1] 0.007 | [2] 0.036 | [3] 0.036 | [4] -0.036 | [5] 0.018

TMEM165 (UniProt Q9HC07)
inactive: [1] -0.03 | [2] -0.016 | [3] 0.165 | [4] -0.005 | [5] 0.031

TMEM161B (UniProt Q8NDZ6)
inactive: [1] -0.076 | [2] 0.13 | [3] 0.018 | [4] 0.092 | [5] 0.08

TM9SF2 (UniProt Q99805)
inactive: [1] 0.018 | [2] 0.035 | [3] 0.054 | [4] -0.044 | [5] -0.028

TMOD1 (UniProt P28289)
inactive: [1] -0.041 | [2] -0.036 | [3] 0.051 | [4] 0.036 | [5] 0.04
